Test results published in doi:10.1101/2021.08.16.456468.
For at least one entry, the source does not settle the construct or the ends of the probe. No signal at the amounts used counts as a negative.

Protein sequences, listed by entry. Tags and fused reporters are not part of them. Lines headed by an entry give the natural chain unless they say otherwise; changes in a name come on top.
UniProt P39787: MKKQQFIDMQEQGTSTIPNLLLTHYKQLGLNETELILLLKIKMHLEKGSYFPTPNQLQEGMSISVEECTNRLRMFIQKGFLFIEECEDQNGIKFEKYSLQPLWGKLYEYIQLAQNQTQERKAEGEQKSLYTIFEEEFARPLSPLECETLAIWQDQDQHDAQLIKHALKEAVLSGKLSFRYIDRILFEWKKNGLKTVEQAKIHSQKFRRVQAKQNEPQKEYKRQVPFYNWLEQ

Target: DnaD7A (Bacillus subtilis) (UniProt P39787)
Experiment: fluorescence polarization

TTTTTTTTTTTTTTTTTTTTTTTTTTTTTTTTTTTTTTTT [dT40]
binding result: no binding
